Tested on: humans
Assay: human panel sweetness scoring on a labeled magnitude scale
Type: in vivo
Conditions: 100 ug/ml of the protein in water
Description: To test the sweetness potency of SEQ ID NOS. 3 and 5, we tested the perception of sweetness using a concentration of 100 ug/ml of the protein in water. One test panel consisted of monkeys. The other test panel was of humans. The response measured in the monkeys was level of activity of taste nerve fibers during the stimulation of the tongue with different compounds being tested. Humans were requested to score the sweetness sensations of the stimuli with a magnitude labeled scale in accordance with the techniques of B. Green et al., 21 Chemical Senses 323 (1996) (e.g. barely detectable; weak; moderate; strong; very strong; strongest imaginable).

Substance | taste as reported by human panel | taste quality indicated by human panel
D29N: Brazzein variant in which the Asp at position 29 is replaced with Asn (DKCKKVYENYPVSKCQLANQCNYDCKLNKHARSGECFYDEKRNLQCICDYCEY) | clean and pleasant | purely sweet without detectable sourness, saltiness or bitterness
D29K: Brazzein variant in which the Asp at position 29 is replaced with Lys (DKCKKVYENYPVSKCQLANQCNYDCKLKKHARSGECFYDEKRNLQCICDYCEY) | clean and pleasant | purely sweet without detectable sourness, saltiness or bitterness

Source: patent US7153535B2, “Protein sweetener” (Wisconsin Alumni Research Foundation, priority 2002, dated 2006)
